Assay results from publication doi:10.1101/487454.
Like-named read-outs stand apart in the source and are kept apart here. No constants are given. Whether binding was seen depends on the method and setting. In cells and extracts the contact can be indirect. Some binding calls cover weakened binding; strength is not graded here. Where a sequence is shown, tags or fusion partners need not be part of it.

Amino acid sequences for entries named in this document (tags omitted).
UniProt Q86VF7: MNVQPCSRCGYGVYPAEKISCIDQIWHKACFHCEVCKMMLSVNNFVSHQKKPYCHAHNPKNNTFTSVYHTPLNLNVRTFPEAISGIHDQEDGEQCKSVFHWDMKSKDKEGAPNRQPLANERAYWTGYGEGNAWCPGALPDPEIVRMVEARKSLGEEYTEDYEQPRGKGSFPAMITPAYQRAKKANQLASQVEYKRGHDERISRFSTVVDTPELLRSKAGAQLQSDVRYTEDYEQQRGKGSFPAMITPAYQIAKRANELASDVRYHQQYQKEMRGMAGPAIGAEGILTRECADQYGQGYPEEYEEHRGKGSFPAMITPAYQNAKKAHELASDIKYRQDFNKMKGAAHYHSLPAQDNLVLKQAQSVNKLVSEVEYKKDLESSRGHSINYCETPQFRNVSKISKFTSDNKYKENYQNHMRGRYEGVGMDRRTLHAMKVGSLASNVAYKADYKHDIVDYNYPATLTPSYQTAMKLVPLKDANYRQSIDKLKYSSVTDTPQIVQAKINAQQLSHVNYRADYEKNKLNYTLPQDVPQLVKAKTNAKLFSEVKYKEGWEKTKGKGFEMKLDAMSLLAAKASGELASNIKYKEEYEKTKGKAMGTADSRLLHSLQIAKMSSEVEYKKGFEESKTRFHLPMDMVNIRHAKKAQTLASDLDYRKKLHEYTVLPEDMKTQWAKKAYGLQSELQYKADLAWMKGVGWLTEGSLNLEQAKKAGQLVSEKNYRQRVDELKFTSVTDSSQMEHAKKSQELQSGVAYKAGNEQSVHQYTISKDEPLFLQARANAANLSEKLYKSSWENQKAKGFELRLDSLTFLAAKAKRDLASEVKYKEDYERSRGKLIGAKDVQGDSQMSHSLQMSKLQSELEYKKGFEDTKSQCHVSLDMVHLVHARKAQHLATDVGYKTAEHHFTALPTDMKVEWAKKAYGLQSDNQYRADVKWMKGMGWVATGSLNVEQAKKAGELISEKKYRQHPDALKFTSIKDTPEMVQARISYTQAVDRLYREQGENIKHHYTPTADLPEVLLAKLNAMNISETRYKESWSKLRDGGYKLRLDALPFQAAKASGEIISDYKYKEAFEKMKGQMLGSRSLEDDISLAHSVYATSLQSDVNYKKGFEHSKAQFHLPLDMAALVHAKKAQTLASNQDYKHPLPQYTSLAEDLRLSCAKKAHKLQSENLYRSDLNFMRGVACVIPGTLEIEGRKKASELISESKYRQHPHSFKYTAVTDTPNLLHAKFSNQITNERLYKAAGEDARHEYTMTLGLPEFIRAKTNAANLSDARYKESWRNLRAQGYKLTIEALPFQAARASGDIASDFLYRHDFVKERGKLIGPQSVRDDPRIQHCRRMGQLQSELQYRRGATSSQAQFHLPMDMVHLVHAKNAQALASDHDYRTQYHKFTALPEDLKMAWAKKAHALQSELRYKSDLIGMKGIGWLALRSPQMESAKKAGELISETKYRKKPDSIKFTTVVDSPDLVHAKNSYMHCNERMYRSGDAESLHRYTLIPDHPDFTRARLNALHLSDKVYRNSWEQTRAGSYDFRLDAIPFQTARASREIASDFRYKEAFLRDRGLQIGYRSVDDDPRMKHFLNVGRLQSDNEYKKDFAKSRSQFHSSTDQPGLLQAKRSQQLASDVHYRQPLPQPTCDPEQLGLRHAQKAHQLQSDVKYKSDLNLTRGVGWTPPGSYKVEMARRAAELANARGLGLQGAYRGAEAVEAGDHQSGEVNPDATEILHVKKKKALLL

T1: KLHL40-FLAG (UniProt Q2TBA0)
T1 sequence: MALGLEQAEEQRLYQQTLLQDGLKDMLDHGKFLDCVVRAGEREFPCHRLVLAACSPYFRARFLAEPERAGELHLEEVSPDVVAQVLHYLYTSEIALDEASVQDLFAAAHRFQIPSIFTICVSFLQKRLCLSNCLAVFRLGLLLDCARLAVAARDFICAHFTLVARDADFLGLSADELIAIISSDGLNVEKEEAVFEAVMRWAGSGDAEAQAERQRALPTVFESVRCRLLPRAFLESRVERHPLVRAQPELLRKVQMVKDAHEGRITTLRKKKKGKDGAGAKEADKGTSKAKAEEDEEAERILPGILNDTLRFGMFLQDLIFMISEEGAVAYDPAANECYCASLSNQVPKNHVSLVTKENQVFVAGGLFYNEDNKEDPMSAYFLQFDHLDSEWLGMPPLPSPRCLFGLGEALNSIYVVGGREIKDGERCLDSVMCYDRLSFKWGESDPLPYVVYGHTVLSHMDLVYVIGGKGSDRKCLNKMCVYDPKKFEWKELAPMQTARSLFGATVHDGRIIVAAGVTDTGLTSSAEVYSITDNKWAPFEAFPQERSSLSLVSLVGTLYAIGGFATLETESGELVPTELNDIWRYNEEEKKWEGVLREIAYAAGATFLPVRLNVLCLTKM


What was measured:
Test in all cases: co-IP
KLHL40-FLAG [1] = target: T1, KLHL40-FLAG
KLHL40-FLAG [2] = target: T1, KLHL40-FLAG; remark: listed apart in the source
Human NRAP-V5 (human) = Human NRAP-V5 (human) (UniProt Q86VF7)

binding (KLHL40-FLAG [1])	binding (KLHL40-FLAG [2])	binding (Human NRAP-V5 (human))	Molecule
binds	binds		Human NRAP-V5 (from UniProt Q86VF7 1-1730)
		binds	Human KLHL41-FLAG (protein, UniProt O60662 1-606) MDSQRELAEELRLYQSTLLQDGLKDLLDEKKFIDCTLKAGDKSLPCHRLILSACSPYFREYFLSEIDEAKKKEVVLDNVDPAILDLIIKYLYSASIDLNDGNVQDIFALASRFQIPSVFTVCVSYLQKRLAPGNCLAILRLGLLLDCPRLAISAREFVSDRFVQICKEEDFMQLSPQELISVISNDSLNVEKEEAVFEAVMKWVRTDKENRVKNLSEVFDCIRFRLMTEKYFKDHVEKDDIIKSNPDLQKKIKVLKDAFAGKLPEPSKNAAKTGAGEVNGDVGDEDLLPGYLNDIPRHGMFVKDLILLVNDTAAVAYDPTENECYLTALAEQIPRNHSSIVTQQNQIYVVGGLYVDEENKDQPLQSYFFQLDSIASEWVGLPPLPSARCLFGLGEVDDKIYVVAGKDLQTEASLDSVLCYDPVAAKWNEVKKLPIKVYGHNVISHKGMIYCLGGKTDDKKCTNRVFIFNPKKGDWKDLAPMKIPRSMFGVAVHKGKIVIAGGVTEDGLSASVEAFDLTTNKWDVMTEFPQERSSISLVSLAGSLYAIGGFAMIQLESKEFAPTEVNDIWKYEDDKKEWAGMLKEIRYASGASCLATRLNLFKLSKL
